We go through five compounds from the supplement of paper PMC7840683.

This experiment relates to HepaRG. The experiment can be described thus: LDH release cytotoxicity, % of total lysis control; higher = more cytotoxic. The note with it: 48 h. Summed up: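 Single-lot HepaRG cells on collagen I-coated 96-well plates were exposed for 48 h in duplicate, in serum-free induction medium with 0.5% DMSO, to eight-point half-log series (test chemicals top 100 µM). Total lysis wells received 0.1% Triton X, and LDH leakage into 50 µL spent medium was read as resorufin fluorescence (CytoTox-ONE, Tecan Safire). Percent cytotoxicity was normalized to on-plate vehicle and total lysis controls and averaged over the duplicates.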

Each structure is given as a SMILES string. ± gives the standard deviation of the averaged measurements.

As for `CC(C)(C)c1ccc(O)cc1` [4-tert-Butylphenol], the LDH release cytotoxicity was -1.49 ± 1% (0.03162 µM); -1.07 ± 1.4% (0.1 µM); -0.895 ± 1.4% (0.3162278 µM); -1.81 ± 1.4% (1 µM); -1.48 ± 0.38% (3.16228 µM); -1.04 ± 1.5% (10 µM). Besides, the LDH release cytotoxicity was -0.404 ± 1.2% (31.6228 µM) and 48.6 ± 3.1% (100 µM).
For `Cc1ccc(O)cc1C` [3,4-Dimethylphenol], the LDH release cytotoxicity is, setting by setting: (0.03162 µM) -1.25 ± 0.25%; (0.1 µM) -1.43 ± 1.4%; (0.3162278 µM) -1.77 ± 1.1%; (1 µM) -2.44 ± 0.054%; (3.16228 µM) -1.293 ± 0.01%; (10 µM) -0.728 ± 0.74%. For the same compound, the LDH release cytotoxicity is 0.0948 ± 0.2% (31.6228 µM) and 0.792 ± 1.1% (100 µM).
For `CS(=O)(=O)c1ccc(C(CC2CCCC2)C(=O)Nc2cnccn2)cc1Cl` (stereo not given), the LDH release cytotoxicity (0.03162 µM) was -1.48 ± 0.44%; the LDH release cytotoxicity (0.1 µM) was -1.58 ± 1.5%; the LDH release cytotoxicity (0.3162278 µM) is -1.31 ± 0.0065%; the LDH release cytotoxicity (1 µM) is -2.08 ± 0.18%; the LDH release cytotoxicity (3.16228 µM) is -1.592 ± 0.013%; the LDH release cytotoxicity (10 µM) was -1.71 ± 1.1%. In addition, the LDH release cytotoxicity reads like this: (31.6228 µM) -0.413 ± 0.65%; (100 µM) 17.4 ± 0.39%.
Take `CCCCCCCC1CCC(=O)O1` (stereo not given) [5-Heptyldihydro-2(3H)-furanone]: the LDH release cytotoxicity was -0.367 ± 0.12% (0.0317809 µM); -0.913 ± 0.3% (0.1005 µM); -0.865 ± 0.25% (0.317809 µM); -1.31 ± 0.2% (1.005 µM); -0.869 ± 0.13% (3.17809 µM); -0.67 ± 0.14% (10.05 µM). The LDH release cytotoxicity (31.7809 µM) is -0.32 ± 0.19% and the LDH release cytotoxicity (100.5 µM) was found to be 0.547 ± 0.29%.
As for `Oc1c(Cl)cc(Cl)cc1Cl` [2,4,6-Trichlorophenol], the LDH release cytotoxicity runs as follows: (0.031623 µM) -0.828 ± 0.2%; (0.1 µM) -2.22 ± 0.092%; (0.316228 µM) -1.66 ± 0.41%; (1 µM) -2.86 ± 1.5%; (3.16228 µM) -1.67 ± 0.49%; (10 µM) -2.16 ± 0.035%. For the same compound, the LDH release cytotoxicity is -1.47 ± 1.2% (31.6228 µM) and 0.385 ± 0.048% (100 µM).
